This passage reports IC50 results from article PMC10785664 (ACS Omega, 2023).

In assay [1] the test system is A549 cells. The assay can be described thus: MTT cell viability, antiproliferative action on A549 cells. The format is cell-based. The following applies: Homo sapiens, A549, 72 h. In outline: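 A549 cells in DMEM with 10% FBS and 1% penicillin-streptomycin (37 °C, 5% CO₂) were grown to 90% confluence, seeded at 2.5 × 10⁴ cells/mL in 96-well plates and left 24 h. Dosing solutions at 25, 50 and 100 µg/mL in PBS/0.2% DMSO were added in triplicate, followed by 72 h incubation. MTT (5 mg/mL) was added for 4 h, then acid-isopropanol overnight. A570/620 was read; viability was blank-corrected relative to untreated controls.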

Assay [2] has as its system A549 cells. The following applies: PTX on A549 cells; cited from earlier work.

Converted amounts (≈) assume the structure as drawn. Like-named read-outs stand apart in the source and are kept apart here.

Broadly, the IC50 is the concentration that gives 50% inhibition. Consider `CC(=O)O[C@H]1C(=O)[C@@]2(C)[C@H]([C@H](OC(=O)c3ccccc3)[C@]3(O)C[C@H](OC(=O)[C@H](O)[C@@H](NC(=O)c4ccccc4)c4ccccc4)C(C)=C1C3(C)C)[C@]1(OC(C)=O)CO[C@@H]1C[C@@H]2O` [PTX, paclitaxel], for which the values for the IC50 with A549 cells [1] and in the assay with A549 cells [2] were 0.96 µg/mL (≈ 1.12 µM) and 0.9 µg/mL (≈ 1.05 µM), respectively.
